Measured values taken from publication doi:10.1101/2021.01.20.427402.
Where a chain is given by its changes, count along the chain named. These are yes or no findings as the source states them, for the method shown. Binding seen in cells or lysates may run through a third protein. A yes stands for co-enrichment or nearness to the bait. Other partners may have been found. Tags and fused reporters may be left off the sequences shown. Blank lines part the entries; values can stand above or below the molecule they belong to.

Sequences of proteins named here, by UniProt entry; tags and fusion partners are left off.
UniProt P35637: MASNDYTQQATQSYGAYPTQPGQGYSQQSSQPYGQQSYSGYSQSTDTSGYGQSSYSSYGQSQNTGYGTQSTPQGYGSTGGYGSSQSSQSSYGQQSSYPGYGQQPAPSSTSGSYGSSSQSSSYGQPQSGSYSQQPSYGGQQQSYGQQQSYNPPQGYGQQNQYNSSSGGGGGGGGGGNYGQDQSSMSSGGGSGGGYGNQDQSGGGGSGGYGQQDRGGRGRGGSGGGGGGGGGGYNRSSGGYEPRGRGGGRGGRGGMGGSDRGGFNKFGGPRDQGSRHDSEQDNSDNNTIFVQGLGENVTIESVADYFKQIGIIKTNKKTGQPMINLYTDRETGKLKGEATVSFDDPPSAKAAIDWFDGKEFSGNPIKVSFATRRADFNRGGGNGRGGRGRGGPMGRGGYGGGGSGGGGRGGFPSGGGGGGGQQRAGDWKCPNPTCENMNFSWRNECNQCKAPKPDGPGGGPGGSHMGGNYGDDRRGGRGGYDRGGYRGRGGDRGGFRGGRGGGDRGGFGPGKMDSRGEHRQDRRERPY
UniProt O94992: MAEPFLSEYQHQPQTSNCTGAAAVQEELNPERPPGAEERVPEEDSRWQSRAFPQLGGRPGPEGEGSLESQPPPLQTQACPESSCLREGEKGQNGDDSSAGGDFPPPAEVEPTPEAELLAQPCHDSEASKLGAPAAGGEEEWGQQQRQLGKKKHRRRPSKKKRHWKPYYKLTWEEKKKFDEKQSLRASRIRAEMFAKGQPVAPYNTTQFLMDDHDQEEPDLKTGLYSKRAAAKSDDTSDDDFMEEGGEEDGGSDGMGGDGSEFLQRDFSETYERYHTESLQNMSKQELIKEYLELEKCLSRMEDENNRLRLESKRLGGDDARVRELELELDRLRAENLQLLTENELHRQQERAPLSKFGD
UniProt Q92841: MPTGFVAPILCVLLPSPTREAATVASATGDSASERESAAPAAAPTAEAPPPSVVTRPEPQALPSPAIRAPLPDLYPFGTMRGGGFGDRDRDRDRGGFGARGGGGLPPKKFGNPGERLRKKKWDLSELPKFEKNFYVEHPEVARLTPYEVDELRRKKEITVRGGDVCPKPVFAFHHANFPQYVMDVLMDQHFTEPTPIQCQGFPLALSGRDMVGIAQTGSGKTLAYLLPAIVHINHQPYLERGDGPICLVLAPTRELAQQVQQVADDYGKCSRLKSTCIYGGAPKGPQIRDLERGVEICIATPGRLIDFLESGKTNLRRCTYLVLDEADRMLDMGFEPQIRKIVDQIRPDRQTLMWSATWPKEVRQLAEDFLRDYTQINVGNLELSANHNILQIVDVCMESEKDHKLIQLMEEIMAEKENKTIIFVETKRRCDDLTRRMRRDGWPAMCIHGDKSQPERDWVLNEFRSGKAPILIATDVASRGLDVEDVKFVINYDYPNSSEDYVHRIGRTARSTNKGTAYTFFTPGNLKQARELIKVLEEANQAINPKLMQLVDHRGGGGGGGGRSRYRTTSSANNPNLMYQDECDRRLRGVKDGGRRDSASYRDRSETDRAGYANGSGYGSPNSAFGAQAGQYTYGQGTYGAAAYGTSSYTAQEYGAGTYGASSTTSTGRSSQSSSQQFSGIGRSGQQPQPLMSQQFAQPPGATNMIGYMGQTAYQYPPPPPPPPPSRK
UniProt Q27J81: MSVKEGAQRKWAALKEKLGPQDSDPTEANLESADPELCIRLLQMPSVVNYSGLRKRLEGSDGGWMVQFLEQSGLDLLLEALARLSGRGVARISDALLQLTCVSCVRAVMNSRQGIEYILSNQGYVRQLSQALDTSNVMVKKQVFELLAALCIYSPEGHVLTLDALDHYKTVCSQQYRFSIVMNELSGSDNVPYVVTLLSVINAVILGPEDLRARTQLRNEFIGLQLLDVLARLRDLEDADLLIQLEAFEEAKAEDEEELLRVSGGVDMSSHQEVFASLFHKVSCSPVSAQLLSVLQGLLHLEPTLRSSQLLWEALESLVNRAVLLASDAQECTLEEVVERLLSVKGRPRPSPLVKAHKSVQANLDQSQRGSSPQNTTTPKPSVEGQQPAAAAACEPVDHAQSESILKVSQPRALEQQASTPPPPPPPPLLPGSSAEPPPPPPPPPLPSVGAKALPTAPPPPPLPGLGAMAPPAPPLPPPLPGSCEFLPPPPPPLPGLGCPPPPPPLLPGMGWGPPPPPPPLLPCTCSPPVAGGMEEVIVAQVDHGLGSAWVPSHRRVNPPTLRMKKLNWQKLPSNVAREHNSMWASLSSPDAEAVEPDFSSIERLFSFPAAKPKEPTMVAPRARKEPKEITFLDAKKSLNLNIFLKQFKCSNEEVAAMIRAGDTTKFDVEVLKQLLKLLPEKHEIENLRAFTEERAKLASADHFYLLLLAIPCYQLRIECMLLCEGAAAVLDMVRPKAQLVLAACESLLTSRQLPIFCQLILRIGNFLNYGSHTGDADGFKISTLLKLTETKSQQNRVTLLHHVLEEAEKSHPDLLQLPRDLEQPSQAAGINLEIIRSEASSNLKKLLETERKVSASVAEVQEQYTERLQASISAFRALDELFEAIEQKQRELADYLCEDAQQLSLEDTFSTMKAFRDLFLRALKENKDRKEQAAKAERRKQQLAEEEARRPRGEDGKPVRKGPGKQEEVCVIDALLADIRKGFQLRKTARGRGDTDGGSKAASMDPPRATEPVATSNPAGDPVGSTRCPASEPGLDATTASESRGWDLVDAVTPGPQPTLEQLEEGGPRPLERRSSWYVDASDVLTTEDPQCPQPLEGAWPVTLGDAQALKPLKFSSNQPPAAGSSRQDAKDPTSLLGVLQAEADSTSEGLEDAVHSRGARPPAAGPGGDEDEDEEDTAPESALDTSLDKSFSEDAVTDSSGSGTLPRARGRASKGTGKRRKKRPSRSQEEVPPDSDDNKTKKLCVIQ
UniProt P41091: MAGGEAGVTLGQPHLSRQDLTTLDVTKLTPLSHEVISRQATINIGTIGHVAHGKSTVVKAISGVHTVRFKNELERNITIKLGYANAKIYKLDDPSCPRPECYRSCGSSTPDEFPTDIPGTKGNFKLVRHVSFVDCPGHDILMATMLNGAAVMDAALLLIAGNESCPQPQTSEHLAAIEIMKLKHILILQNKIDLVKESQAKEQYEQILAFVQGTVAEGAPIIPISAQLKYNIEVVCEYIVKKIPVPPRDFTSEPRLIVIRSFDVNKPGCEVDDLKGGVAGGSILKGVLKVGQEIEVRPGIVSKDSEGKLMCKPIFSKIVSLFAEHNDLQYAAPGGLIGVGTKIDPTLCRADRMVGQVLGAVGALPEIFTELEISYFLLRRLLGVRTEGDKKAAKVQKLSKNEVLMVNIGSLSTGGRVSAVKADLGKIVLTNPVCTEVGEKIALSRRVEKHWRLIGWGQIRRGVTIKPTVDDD
UniProt P17844: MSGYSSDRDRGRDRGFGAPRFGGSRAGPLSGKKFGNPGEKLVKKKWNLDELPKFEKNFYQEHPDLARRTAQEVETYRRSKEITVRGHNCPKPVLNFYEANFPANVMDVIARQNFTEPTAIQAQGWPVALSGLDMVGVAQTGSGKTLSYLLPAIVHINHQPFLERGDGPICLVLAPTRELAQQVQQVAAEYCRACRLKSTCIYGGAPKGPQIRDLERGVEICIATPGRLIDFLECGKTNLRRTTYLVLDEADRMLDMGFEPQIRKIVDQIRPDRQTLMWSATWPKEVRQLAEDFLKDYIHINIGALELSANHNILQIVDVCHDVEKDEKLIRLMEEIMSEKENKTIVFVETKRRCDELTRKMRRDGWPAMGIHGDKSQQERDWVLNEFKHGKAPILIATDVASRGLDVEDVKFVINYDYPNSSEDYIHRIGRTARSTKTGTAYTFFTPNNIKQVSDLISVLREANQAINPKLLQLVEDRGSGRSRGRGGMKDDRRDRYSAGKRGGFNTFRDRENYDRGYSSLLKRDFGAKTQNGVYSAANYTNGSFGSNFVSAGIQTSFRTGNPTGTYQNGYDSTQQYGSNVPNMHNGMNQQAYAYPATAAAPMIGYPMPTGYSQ
UniProt P35611: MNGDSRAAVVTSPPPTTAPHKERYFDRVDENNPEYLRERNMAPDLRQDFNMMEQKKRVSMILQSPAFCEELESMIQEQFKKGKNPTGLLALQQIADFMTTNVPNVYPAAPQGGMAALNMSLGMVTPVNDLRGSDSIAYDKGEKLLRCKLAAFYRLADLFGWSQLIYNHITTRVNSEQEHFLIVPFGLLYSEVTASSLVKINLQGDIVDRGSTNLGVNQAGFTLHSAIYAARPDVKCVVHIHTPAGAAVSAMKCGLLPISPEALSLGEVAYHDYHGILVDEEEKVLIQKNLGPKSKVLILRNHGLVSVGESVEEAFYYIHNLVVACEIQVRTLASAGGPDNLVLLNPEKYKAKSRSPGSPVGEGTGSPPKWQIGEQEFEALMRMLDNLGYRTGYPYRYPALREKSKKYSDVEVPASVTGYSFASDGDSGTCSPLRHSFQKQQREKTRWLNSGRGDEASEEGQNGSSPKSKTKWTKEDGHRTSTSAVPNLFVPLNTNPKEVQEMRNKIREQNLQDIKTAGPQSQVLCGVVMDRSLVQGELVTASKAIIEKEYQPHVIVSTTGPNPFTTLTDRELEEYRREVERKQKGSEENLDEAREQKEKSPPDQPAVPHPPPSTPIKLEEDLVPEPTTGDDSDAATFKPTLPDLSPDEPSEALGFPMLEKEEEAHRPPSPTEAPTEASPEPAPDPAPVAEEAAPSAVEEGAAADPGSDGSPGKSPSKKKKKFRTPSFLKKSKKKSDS

Assays:
[1] = target: T1, GFP-Zαβ^DAI fusion (amino-terminal region of human DAI, residues Ala2-Tyr165, with N-terminal LAP-tag) (human) (UniProt Q9H171); assay: affinity purification with mass spectrometry
T1 sequence: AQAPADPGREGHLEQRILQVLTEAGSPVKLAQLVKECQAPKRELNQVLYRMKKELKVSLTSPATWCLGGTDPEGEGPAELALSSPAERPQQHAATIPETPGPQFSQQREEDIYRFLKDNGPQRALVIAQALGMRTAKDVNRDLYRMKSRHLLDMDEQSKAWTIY

[2] = target: T2, GFP-Zαβ^DAI quadruple mutant (N46A/Y50A/N141A/Y145A) (human) (UniProt Q9H171); assay: affinity purification with mass spectrometry
T2 sequence: T1 sequence with N45A, Y49A, N140A, Y144A

Molecule: FUS (from UniProt P35637 1-526)
binding [1]: binds

Molecule: Protein HEXIM1 (from UniProt O94992 1-359)
binding [2]: binds | binding [1]: binds

Molecule: DDX17 (from UniProt Q92841 1-729)
binding [2]: binds | binding [1]: binds

Molecule: FAM98A protein (from UniProt Q8NCA5 1-518)
binding [1]: binds

Molecule: Inverted formin-2 (from UniProt Q27J81 1-1249)
binding [2]: binds

Molecule: Eukaryotic translation initiation factor 2 subunit 3 (from UniProt P41091 1-472)
binding [2]: binds

Molecule: Ras GTPase-activating protein binding protein 1 (from UniProt Q13283 1-466)
binding [1]: binds

B2: tRNA-splicing ligase RtcB homolog (protein, UniProt Q9Y3I0 1-505)
chain: MSRSYNDELQFLEKINKNCWRIKKGFVPNMQVEGVFYVNDALEKLMFEELRNACRGGGVGGFLPAMKQIGNVAALPGIVHRSIGLPDVHSGYGFAIGNMAAFDMNDPEAVVSPGGVGFDINCGVRLLRTNLDESDVQPVKEQLAQAMFDHIPVGVGSKGVIPMNAKDLEEALEMGVDWSLREGYAWAEDKEHCEEYGRMLQADPNKVSARAKKRGLPQLGTLGAGNHYAEIQVVDEIFNEYAAKKMGIDHKGQVCVMIHSGSRGLGHQVATDALVAMEKAMKRDKIIVNDRQLACARIASPEGQDYLKGMAAAGNYAWVNRSSMTFLTRQAFAKVFNTTPDDLDLHVIYDVSHNIAKVEQHVVDGKERTLLVHRKGSTRAFPPHHPLIAVDYQLTGQPVLIGGTMGTCSYVLTGTEQGMTETFGTTCHGAGRALSRAKSRRNLDFQDVLDKLADMGIAIRVASPKLVMEEAPESYKNVTDVVNTCHDAGISKKAIKLRPIAVIKG
binding [2]: binds | binding [1]: binds

B3: Ataxin-2-like protein (protein, UniProt Q8WWM7 1-1075)
chain: MLKPQPLQQPSQPQQPPPTQQAVARRPPGGTSPPNGGLPGPLATSAAPPGPPAAASPCLGPVAAAGSGLRRGAEGILAPQPPPPQQHQERPGAAAIGSARGQSTGKGPPQSPVFEGVYNNSRMLHFLTAVVGSTCDVKVKNGTTYEGIFKTLSSKFELAVDAVHRKASEPAGGPRREDIVDTMVFKPSDVMLVHFRNVDFNYATKDKFTDSAIAMNSKVNGEHKEKVLQRWEGGDSNSDDYDLESDMSNGWDPNEMFKFNEENYGVKTTYDSSLSSYTVPLEKDNSEEFRQRELRAAQLAREIESSPQYRLRIAMENDDGRTEEEKHSAVQRQGSGRESPSLASREGKYIPLPQRVREGPRGGVRCSSSRGGRPGLSSLPPRGPHHLDNSSPGPGSEARGINGGPSRMSPKAQRPLRGAKTLSSPSNRPSGETSVPPPPAVGRMYPPRSPKSAAPAPISASCPEPPIGSAVPTSSASIPVTSSVSDPGVGSISPASPKISLAPTDVKELSTKEPGRTLEPQELARIAGKVPGLQNEQKRFQLEELRKFGAQFKLQPSSSPENSLDPFPPRILKEEPKGKEKEVDGLLTSEPMGSPVSSKTESVSDKEDKPPLAPSGGTEGPEQPPPPCPSQTGSPPVGLIKGEDKDEGPVAEQVKKSTLNPNAKEFNPTKPLLSVNKSTSTPTSPGPRTHSTPSIPVLTAGQSGLYSPQYISYIPQIHMGPAVQAPQMYPYPVSNSVPGQQGKYRGAKGSLPPQRSDQHQPASAPPMMQAAAAAGPPLVAATPYSSYIPYNPQQFPGQPAMMQPMAHYPSQPVFAPMLQSNPRMLTSGSHPQAIVSSSTPQYPSAEQPTPQALYATVHQSYPHHATQLHAHQPQPATTPTGSQPQSQHAAPSPVQHQAGQAPHLGSGQPQQNLYHPGALTGTPPSLPPGPSAQSPQSSFPQPAAVYAIHHQQLPHGFTNMAHVTQAHVQTGITAAPPPHPGAPHPPQVMLLHPPQSHGGPPQGAVPQSGVPALSASTPSPYPYIGHPQGEQPGQAPGFPGGADDRIREFSLAGGIWHGRAEGLQVGQDARVLGGE
binding [2]: binds | binding [1]: binds

B7: C14orf166 (protein, UniProt Q9Y224 1-244)
chain: MFRRKLTALDYHNPAGFNCKDETEFRNFIVWLEDQKIRHYKIEDRGNLRNIHSSDWPKFFEKYLRDVNCPFKIQDRQEAIDWLLGLAVRLEYGDNAEKYKDLVPDNSKTADNATKNAEPLINLDVNNPDFKAGVMALANLLQIQRHDDYLVMLKAIRILVQERLTQDAVAKANQTKEGLPVALDKHILGFDTGDAVLNEAAQILRLLHIEELRELQTKINEAIVAVQAIIADPKTDHRLGKVGR
binding [1]: binds

B8: DEAD-Box Helicase 1 (protein, UniProt Q92499 1-740)
chain: MAAFSEMGVMPEIAQAVEEMDWLLPTDIQAESIPLILGGGDVLMAAETGSGKTGAFSIPVIQIVYETLKDQQEGKKGKTTIKTGASVLNKWQMNPYDRGSAFAIGSDGLCCQSREVKEWHGCRATKGLMKGKHYYEVSCHDQGLCRVGWSTMQASLDLGTDKFGFGFGGTGKKSHNKQFDNYGEEFTMHDTIGCYLDIDKGHVKFSKNGKDLGLAFEIPPHMKNQALFPACVLKNAELKFNFGEEEFKFPPKDGFVALSKAPDGYIVKSQHSGNAQVTQTKFLPNAPKALIVEPSRELAEQTLNNIKQFKKYIDNPKLRELLIIGGVAARDQLSVLENGVDIVVGTPGRLDDLVSTGKLNLSQVRFLVLDEADGLLSQGYSDFINRMHNQIPQVTSDGKRLQVIVCSATLHSFDVKKLSEKIMHFPTWVDLKGEDSVPDTVHHVVVPVNPKTDRLWERLGKSHIRTDDVHAKDNTRPGANSPEMWSEAIKILKGEYAVRAIKEHKMDQAIIFCRTKIDCDNLEQYFIQQGGGPDKKGHQFSCVCLHGDRKPHERKQNLERFKKGDVRFLICTDVAARGIDIHGVPYVINVTLPDEKQNYVHRIGRVGRAERMGLAISLVATEKEKVWYHVCSSRGKGCYNTRLKEDGGCTIWYNEMQLLSEIEEHLNCTISQVEPDIKVPVDEFDGKVTYGQKRAAGGGSYKGHVDILAPTVQELAALEKEAQTSFLHLGYLPNQLFRTF
binding [2]: binds | binding [1]: binds

More lines, now with the values ahead:

binding [2]: binds
Molecule: 60S acidic ribosomal protein P1 (from UniProt P05386 1-114)

binding [2]: binds | binding [1]: binds
Molecule: DEAD-Box Helicase 5 (from UniProt P17844 1-614)

binding [2]: binds | binding [1]: binds
Molecule: Alpha-adducin (from UniProt P35611 1-737)

binding [2]: binds | binding [1]: binds
B1: RNA-binding protein 14 (protein, UniProt Q96PK6 1-669)
chain: MKIFVGNVDGADTTPEELAALFAPYGTVMSCAVMKQFAFVHMRENAGALRAIEALHGHELRPGRALVVEMSRPRPLNTWKIFVGNVSAACTSQELRSLFERRGRVIECDVVKDYAFVHMEKEADAKAAIAQLNGKEVKGKRINVELSTKGQKKGPGLAVQSGDKTKKPGAGDTAFPGTGGFSATFDYQQAFGNSTGGFDGQARQPTPPFFGRDRSPLRRSPPRASYVAPLTAQPATYRAQPSVSLGAAYRAQPSASLGVGYRTQPMTAQAASYRAQPSVSLGAPYRGQLASPSSQSAAASSLGPYGGAQPSASALSSYGGQAAAASSLNSYGAQGSSLASYGNQPSSYGAQAASSYGVRAAASSYNTQGAASSLGSYGAQAASYGAQSAASSLAYGAQAASYNAQPSASYNAQSAPYAAQQAASYSSQPAAYVAQPATAAAYASQPAAYAAQATTPMAGSYGAQPVVQTQLNSYGAQASMGLSGSYGAQSAAAATGSYGAAAAYGAQPSATLAAPYRTQSSASLAASYAAQQHPQAAASYRGQPGNAYDGAGQPSAAYLSMSQGAVANANSTPPPYERTRLSPPRASYDDPYKKAVAMSKRYGSDRRLAELSDYRRLSESQLSFRRSPTKSSLDYRRLPDAHSDYARYSGSYNDYLRAAQMHSGYQRRM

binding [2]: binds
B4: COX assembly mitochondrial protein homolog (protein, UniProt Q7Z7K0 1-106)
chain: MALDPADQHLRHVEKDVLIPKIMREKAKERCSEQVQDFTKCCKNSGVLMVVKCRKENSALKECLTAYYNDPAFYEECKMEYLKEREEFRKTGIPTKKRLQKLPTSM

binding [2]: binds | binding [1]: binds
B5: Nuclear fragile X mental retardation-interacting protein 2 (protein, UniProt Q7Z417 1-695)
chain: MEEKPGQPQPQHHHSHHHPHHHPQQQQQQPHHHHHYYFYNHSHNHHHHHHHQQPHQYLQHGAEGSPKAQPKPLKHEQKHTLQQHQETPKKKTGYGELNGNAGEREISLKNLSSDEATNPISRVLNGNQQVVDTSLKQTVKANTFGKAGIKTKNFIQKNSMDKKNGKSYENKSGENQSVDKSDTIPIPNGVVTNNSGYITNGYMGKGADNDGSGSESGYTTPKKRKARRNSAKGCENLNIVQDKIMQQETSVPTLKQGLETFKPDYSEQKGNRVDGSKPIWKYETGPGGTSRGKPAVGDMLRKSSDSKPGVSSKKFDDRPKGKHASAVASKEDSWTLFKPPPVFPVDNSSAKIVPKISYASKVKENLNKTIQNSSVSPTSSSSSSSSTGETQTQSSSRLSQVPMSALKSVTSANFSNGPVLAGTDGNVYPPGGQPLLTTAANTLTPISSGTDSVLQDMSLTSAAVEQIKTSLFIYPSNMQTMLLSTAQVDLPSQTDQQNLGDIFQNQWGLSFINEPSAGPETVTGKSSEHKVMEVTFQGEYPATLVSQGAEIIPSGTEHPVFPKAYELEKRTSPQVLGSILKSGTTSESGALSLEPSHIGDLQKADTSSQGALVFLSKDYEIESQNPLASPTNTLLGSAKEQRYQRGLERNDSWGSFDLRAAIVYHTKEMESIWNLQKQDPKRIITYNEAMDSPDQ

binding [2]: binds | binding [1]: binds
B6: Ras GTPase-activating protein-binding protein 2 (protein, UniProt Q9UN86 1-482)
chain: MVMEKPSPLLVGREFVRQYYTLLNKAPEYLHRFYGRNSSYVHGGVDASGKPQEAVYGQNDIHHKVLSLNFSECHTKIRHVDAHATLSDGVVVQVMGLLSNSGQPERKFMQTFVLAPEGSVPNKFYVHNDMFRYEDEVFGDSEPELDEESEDEVEEEQEERQPSPEPVQENANSGYYEAHPVTNGIEEPLEESSHEPEPEPESETKTEELKPQVEEKNLEELEEKSTTPPPAEPVSLPQEPPKAFSWASVTSKNLPPSGTVSSSGIPPHVKAPVSQPRVEAKPEVQSQPPRVREQRPRERPGFPPRGPRPGRGDMEQNDSDNRRIIRYPDSHQLFVGNLPHDIDENELKEFFMSFGNVVELRINTKGVGGKLPNFGFVVFDDSEPVQRILIAKPIMFRGEVRLNVEEKKTRAARERETRGGGDDRRDIRRNDRGPGGPRGIVGGGMMRDRDGRGPPPRGGMAQKLGSGRGTGQMEGRFTGQRR
